Data as given in PubChem BioAssay AID489008 (National Center for Advancing Translational Sciences (NCATS), 2010).
This list was built around the results that the source calls inconclusive (neither active nor inactive); the mix of calls is not that of the screen. Calls come from the whole dose curve; as a rule, active = well fitted inhibition curve with a large enough effect; inconclusive = small, poorly fitted or top-dose-only effect; inactive = flat fitted curve, though single readings scatter. Potencies beside an inconclusive call are fits to weak or partial responses and may not hold up.

Chains of the proteins cited; added tags and fusions are not shown. Lines headed by an entry give the natural chain unless they say otherwise; changes in a name come on top.
UniProt P02791: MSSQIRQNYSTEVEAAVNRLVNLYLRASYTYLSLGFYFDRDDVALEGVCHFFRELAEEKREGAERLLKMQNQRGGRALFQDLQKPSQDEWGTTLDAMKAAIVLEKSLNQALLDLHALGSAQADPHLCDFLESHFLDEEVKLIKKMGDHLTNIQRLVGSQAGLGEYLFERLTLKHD

Target: Ferritin light chain (Equus caballus) (UniProt P02791)
Experiment: Confirmation Assay for Identification of Novel General Anesthetics; note: nearly all actives have a fitted effect of over 40% in size
Conditions: apoferritin 1-aminoanthracene fluorescence displacement
Summary of the method: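 Competitive displacement of profluorescent 1-aminoanthracene from 10 uM horse-spleen apoferritin in 50% saturated 1-AMA/PBS; 10 min RT, fluorescence Ex 380/Em 535. Normalized to free 1-AMA and complex; four-parameter Hill fit.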
Potency is the fitted concentration of half-maximal effect.

| SMILES | Potency |
| --- | --- |
| CC1CCCCC1NC(=O)CO/N=C/c1ccc(OC(F)F)cc1 (centres undefined) | inconclusive: 17.8 µM [inhibitor, partial curve] |
| O=C(CN1N=C(c2ccccc2)CCC1=O)NCc1ccccc1 | inconclusive: 7.08 µM [inhibitor, full curve] |
| COc1ccc(C)cc1S(=O)(=O)NCCC1=CCCCC1 | inconclusive: 35.5 µM [inhibitor, partial curve] |
| O=C(NCCc1ccccc1)c1noc2c1CCCCC2 | inconclusive: 44.7 µM [inhibitor, partial curve] |
